Experimental data from patent publication US20160060235A1, “Therapeutic Agent for Type 2 Diabetes” (NATIONAL UNIVERSITY CORPORATION KUMAMOTO UNIVERSITY, priority 2013, published 2016).
At least one structure is not confirmed: it was looked up by name or label, or the drawing left a doubt. Some of these results come from one statement about several compounds together.

test system: E. coli harboring pACYCDuet-1-Phe; experiment: Primary screening: dual luciferase assay of translation accuracy (frameshift mistranslation reporter); assay type: cell-based; conditions: compound at final concentration of 10 μM, shake culture 1 hour, versus DMSO control
Description: The vector map of the prepared plasmid pACYCDuet-1-Phe (SEQ ID NO: 1) is shown in the left diagram of FIG. 1. The phenylalanine codon TTT was designed as NNN. When translation takes place according to the normal reading frame, the stop codon TAA appears immediately after TTT so that the sequence is not translated into firefly luciferase. On the other hand, if mistranslation occurs in TTT so as to skip one T, the stop codon is circumvented so that the sequence is correctly translated into firefly luciferase. This means that the higher the accuracy of translation is, the lower the fluorescence intensity of firefly luciferase is.
Renilla luciferase gene is also cloned into this plasmid as a control.
The E. coli harboring pACYCDuet-1-Phe was cultured overnight at 37° C. using 100 mL of a culture medium. After confirmation that OD550 reached 0.4 to 1, 1 mL of the culture medium was dispensed, and each low-molecular compound was added thereto at a final concentration of 10 μM. After shake culture for 1 hour, the E. coli was recovered and lysed by suspension in 10 mM Tris-HCl (pH 7.4), 1 mM magnesium chloride, and 0.1 mg/mL lysozyme (manufactured by Wako Pure Chemical Industries, Ltd.).
The activity of the firefly luciferase and the Renilla luciferase was measured using Dual-Luciferase Reporter Assay System (manufactured by Promega Corp.). To 5 μL of the E. coli lysate, 50 μL of an assay solution for the firefly luciferase was added for the measurement. Then, 50 μL of an assay solution for the Renilla luciferase was added thereto for the measurement. An E. coli lysate supplemented only with DMSO was prepared as a control.
The luminescence intensity of the firefly luciferase was corrected against that of the Renilla luciferase by use of the equation given below. This series of experimental approaches is plotted in FIG. 1.
Relative luminescence intensity=Firefly luciferase/Renilla luciferase
Relative translation accuracy=Relative luminescence intensity (from the addition of only DMSO)/Relative luminescence intensity (in the presence of the compound)

| Compound | relative translation accuracy with the translation accuracy of the control defined as 1 |
| --- | --- |
| CN1CCN(CCC(=O)c2ccccc2)CC1 [I-5] | ≥ 1.5 times |
| Cc1ccc(C(=O)CCN(C)C)cc1 [I-3] | ≥ 1.5 times |
| O=C(CCN1CCN(c2ccccc2F)CC1)c1ccccc1 [I-6] | ≥ 1.5 times |
| O=C(CCN1CCCCC1)c1ccccc1 [I-2] | ≥ 1.5 times |
| CCCSc1ccc(C(=O)CCN(C)C)cc1 [I-4] | ≥ 1.5 times |

same assay, conditions: existing therapeutic agents for diabetes, 10 μM, versus DMSO control

| Compound | improvement of translation accuracy as compared with the control (in words) |
| --- | --- |
| C[C@H]1O[C@H](O[C@H]2[C@H](O)[C@@H](O)[C@@H](O[C@H]3[C@H](O)[C@@H](O)C(O)O[C@@H]3CO)O[C@@H]2CO)[C@H](O)[C@@H](O)[C@@H]1N[C@H]1C=C(CO)[C@@H](O)[C@H](O)[C@H]1O (stereo partly drawn) [acarbose] | none of the existing therapeutic agents for diabetes were shown to significantly improve translation accuracy |
